Data published in publication PMC11455913.
These are yes or no findings as the source states them, for the method shown. In cells and extracts the contact can be indirect. Some results given as binding are weak or reduced against the parent protein; the word gives no strength. For some of these results: Sequences can lack the tags named with a protein.

Protein sequences, listed by entry. Tags and fused reporters are not part of them.
UniProt P14618: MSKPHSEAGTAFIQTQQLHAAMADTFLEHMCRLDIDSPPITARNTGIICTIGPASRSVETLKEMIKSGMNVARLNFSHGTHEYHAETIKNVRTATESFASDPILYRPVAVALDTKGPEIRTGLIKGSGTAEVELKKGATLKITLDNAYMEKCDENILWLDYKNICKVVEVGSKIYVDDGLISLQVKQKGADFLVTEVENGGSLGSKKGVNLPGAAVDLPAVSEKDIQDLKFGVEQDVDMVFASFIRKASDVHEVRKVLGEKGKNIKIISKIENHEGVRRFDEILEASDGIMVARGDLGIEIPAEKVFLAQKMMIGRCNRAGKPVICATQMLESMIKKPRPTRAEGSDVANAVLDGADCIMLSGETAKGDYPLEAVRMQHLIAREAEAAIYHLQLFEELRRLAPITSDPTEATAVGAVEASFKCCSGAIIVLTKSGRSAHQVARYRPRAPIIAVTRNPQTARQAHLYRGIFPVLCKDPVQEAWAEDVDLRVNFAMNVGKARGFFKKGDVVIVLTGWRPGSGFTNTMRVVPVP

T1: CHAC1 (glutathione-specific gamma-glutamylcyclotransferase 1), endogenous (human (endogenous in LUAD cell lines A549, PC9)) (UniProt Q9BUX1)
T1 sequence: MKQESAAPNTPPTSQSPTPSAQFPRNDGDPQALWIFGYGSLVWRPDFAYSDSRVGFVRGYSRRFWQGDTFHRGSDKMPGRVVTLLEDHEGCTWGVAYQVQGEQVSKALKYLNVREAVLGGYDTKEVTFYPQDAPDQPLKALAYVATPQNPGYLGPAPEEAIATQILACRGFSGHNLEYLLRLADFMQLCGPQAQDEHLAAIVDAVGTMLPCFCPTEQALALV

T2: FLAG-tagged CHAC1 (glutathione-specific gamma-glutamylcyclotransferase 1) (human) (UniProt Q9BUX1)
T2 sequence: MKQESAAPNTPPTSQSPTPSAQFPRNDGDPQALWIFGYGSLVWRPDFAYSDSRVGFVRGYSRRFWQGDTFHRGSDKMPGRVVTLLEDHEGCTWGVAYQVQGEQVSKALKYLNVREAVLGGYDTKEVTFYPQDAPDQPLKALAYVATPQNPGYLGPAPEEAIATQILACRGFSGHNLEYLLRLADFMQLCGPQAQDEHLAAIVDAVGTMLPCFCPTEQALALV


Key:
[1] = target: T1, CHAC1 (glutathione-specific gamma-glutamylcyclotransferase 1), endogenous (human (endogenous in LUAD cell lines A549, PC9)); assay: co-IP; endogenous proteins in LUAD cells; RIPA lysis buffer with protease inhibitors, specific primary antibodies and protein A/G magnetic beads, normal IgG as control, washed thrice with TBS (50 mM Tris-HCl, 150 mM NaCl, pH 7.4), western blot; also with CHAC1 knockdown
[2] = target: T2, FLAG-tagged CHAC1 (glutathione-specific gamma-glutamylcyclotransferase 1) (human); assay: co-IP; LUAD cells (A549, PC9) expressing tagged proteins (Flag-CHAC1 lentivirus, HA-PKM2, FLAG-SUMO1); RIPA lysis buffer with protease inhibitors, specific primary antibodies and protein A/G magnetic beads, normal IgG as control, washed thrice with TBS (50 mM Tris-HCl, 150 mM NaCl, pH 7.4), western blot
[3] = target: HA-tagged PKM2 (wild type) (UniProt P14618); assay: as above

Row | binding [1] | binding [2] | Molecule | binding [3]
1 | binds | binds | PKM2 (pyruvate kinase M2), endogenous (from UniProt P14618 1-531) | –
2 | – | – | FLAG-tagged CHAC1 (glutathione-specific gamma-glutamylcyclotransferase 1) (protein, UniProt Q9BUX1 1-222) MKQESAAPNTPPTSQSPTPSAQFPRNDGDPQALWIFGYGSLVWRPDFAYSDSRVGFVRGYSRRFWQGDTFHRGSDKMPGRVVTLLEDHEGCTWGVAYQVQGEQVSKALKYLNVREAVLGGYDTKEVTFYPQDAPDQPLKALAYVATPQNPGYLGPAPEEAIATQILACRGFSGHNLEYLLRLADFMQLCGPQAQDEHLAAIVDAVGTMLPCFCPTEQALALV | binds
3 | – | binds | UBA2 (ubiquitin-like modifier activating enzyme 2), endogenous (protein, UniProt Q9UBT2 1-640) MALSRGLPRELAEAVAGGRVLVVGAGGIGCELLKNLVLTGFSHIDLIDLDTIDVSNLNRQFLFQKKHVGRSKAQVAKESVLQFYPKANIVAYHDSIMNPDYNVEFFRQFILVMNALDNRAARNHVNRMCLAADVPLIESGTAGYLGQVTTIKKGVTECYECHPKPTQRTFPGCTIRNTPSEPIHCIVWAKYLFNQLFGEEDADQEVSPDRADPEAAWEPTEAEARARASNEDGDIKRISTKEWAKSTGYDPVKLFTKLFKDDIRYLLTMDKLWRKRKPPVPLDWAEVQSQGEETNASDQQNEPQLGLKDQQVLDVKSYARLFSKSIETLRVHLAEKGDGAELIWDKDDPSAMDFVTSAANLRMHIFSMNMKSRFDIKSMAGNIIPAIATTNAVIAGLIVLEGLKILSGKIDQCRTIFLNKQPNPRKKLLVPCALDPPNPNCYVCASKPEVTVRLNVHKVTVLTLQDKIVKEKFAMVAPDVQIEDGKGTILISSEEGETEANNHKKLSEFGIRNGSRLQADDFLQDYTLLINILHSEDLGKDVEFEVVGDAPEKVGPKQAEDAAKSITNGSDDGAQPSTSTAQEQDDVLIVDSDEEDSSNNADVSEEERSRKRKLDEKENLSAKRSRIEQKEELDDVIALD | –
